According to patent US9084828B2, “Oligomer-protein tyrosine kinase inhibitor conjugates” (Nektar Therapeutics, priority 2009, dated 2015):
At least one structure is not confirmed: it was looked up by name or label, or the drawing left a doubt.

The chains behind the UniProt entries cited, without tags or fusion partners.
UniProt P00519, whole entry: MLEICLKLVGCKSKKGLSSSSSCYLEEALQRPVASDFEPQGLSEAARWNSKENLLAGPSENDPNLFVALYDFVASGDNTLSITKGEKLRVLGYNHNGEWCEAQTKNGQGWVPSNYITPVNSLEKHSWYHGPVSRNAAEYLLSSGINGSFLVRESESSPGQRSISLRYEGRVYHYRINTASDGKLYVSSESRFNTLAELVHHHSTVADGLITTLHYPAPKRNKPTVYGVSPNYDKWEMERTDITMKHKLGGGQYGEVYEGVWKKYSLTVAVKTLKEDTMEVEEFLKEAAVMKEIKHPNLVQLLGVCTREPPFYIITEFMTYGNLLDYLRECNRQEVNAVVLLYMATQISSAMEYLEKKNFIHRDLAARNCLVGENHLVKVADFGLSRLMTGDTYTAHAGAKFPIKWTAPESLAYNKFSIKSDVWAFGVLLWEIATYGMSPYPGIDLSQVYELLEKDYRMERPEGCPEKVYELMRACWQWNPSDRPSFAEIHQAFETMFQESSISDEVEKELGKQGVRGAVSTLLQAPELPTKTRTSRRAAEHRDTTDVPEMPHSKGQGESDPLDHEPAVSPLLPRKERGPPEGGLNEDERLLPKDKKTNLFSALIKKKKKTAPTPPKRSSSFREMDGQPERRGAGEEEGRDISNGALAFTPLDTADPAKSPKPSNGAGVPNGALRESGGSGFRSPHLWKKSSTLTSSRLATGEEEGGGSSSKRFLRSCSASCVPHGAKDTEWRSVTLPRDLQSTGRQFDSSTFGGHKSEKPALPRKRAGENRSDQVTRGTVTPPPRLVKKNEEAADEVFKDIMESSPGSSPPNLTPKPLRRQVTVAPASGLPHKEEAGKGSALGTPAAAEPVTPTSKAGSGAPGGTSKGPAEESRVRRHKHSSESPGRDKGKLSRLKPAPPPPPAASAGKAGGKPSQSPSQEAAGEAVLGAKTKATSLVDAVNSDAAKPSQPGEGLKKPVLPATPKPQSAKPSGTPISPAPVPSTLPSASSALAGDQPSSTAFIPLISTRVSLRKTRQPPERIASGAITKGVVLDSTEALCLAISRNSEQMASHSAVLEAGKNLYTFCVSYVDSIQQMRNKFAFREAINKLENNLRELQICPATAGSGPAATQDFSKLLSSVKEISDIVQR

Molecular target: ABL (Homo sapiens, UniProt P00519)
Assay: ABL tyrosine kinase inhibition, off-chip incubation mobility-shift kinase assay (Caliper LABCHIP 3000)
Settings: stated in Example 4 text; kinase not given, values match ABL of Table 2; unit not given

| Compound | IC50s [E^−10] |
| --- | --- |
| COCCOCCOCCOCCOCCOCCOCCNC(=O)OCCN1CCN(c2cc(Nc3ncc(C(=O)Nc4c(C)cccc4Cl)s3)nc(C)n2)CC1 [mPEG7-NHCOO-Dasatinib] | 3.2 |
| COCCOCCOCCNC(=O)OCCN1CCN(c2cc(Nc3ncc(C(=O)Nc4c(C)cccc4Cl)s3)nc(C)n2)CC1 [mPEG3-NHCOO-Dasatinib] | 3 |
